Experimental findings from publication PMC5718073 are described below.

The chains behind the UniProt entries cited, without tags or fusion partners. Where a name states a change or a piece, a line headed by the entry shows the natural chain unless it says otherwise.
UniProt Q9V460: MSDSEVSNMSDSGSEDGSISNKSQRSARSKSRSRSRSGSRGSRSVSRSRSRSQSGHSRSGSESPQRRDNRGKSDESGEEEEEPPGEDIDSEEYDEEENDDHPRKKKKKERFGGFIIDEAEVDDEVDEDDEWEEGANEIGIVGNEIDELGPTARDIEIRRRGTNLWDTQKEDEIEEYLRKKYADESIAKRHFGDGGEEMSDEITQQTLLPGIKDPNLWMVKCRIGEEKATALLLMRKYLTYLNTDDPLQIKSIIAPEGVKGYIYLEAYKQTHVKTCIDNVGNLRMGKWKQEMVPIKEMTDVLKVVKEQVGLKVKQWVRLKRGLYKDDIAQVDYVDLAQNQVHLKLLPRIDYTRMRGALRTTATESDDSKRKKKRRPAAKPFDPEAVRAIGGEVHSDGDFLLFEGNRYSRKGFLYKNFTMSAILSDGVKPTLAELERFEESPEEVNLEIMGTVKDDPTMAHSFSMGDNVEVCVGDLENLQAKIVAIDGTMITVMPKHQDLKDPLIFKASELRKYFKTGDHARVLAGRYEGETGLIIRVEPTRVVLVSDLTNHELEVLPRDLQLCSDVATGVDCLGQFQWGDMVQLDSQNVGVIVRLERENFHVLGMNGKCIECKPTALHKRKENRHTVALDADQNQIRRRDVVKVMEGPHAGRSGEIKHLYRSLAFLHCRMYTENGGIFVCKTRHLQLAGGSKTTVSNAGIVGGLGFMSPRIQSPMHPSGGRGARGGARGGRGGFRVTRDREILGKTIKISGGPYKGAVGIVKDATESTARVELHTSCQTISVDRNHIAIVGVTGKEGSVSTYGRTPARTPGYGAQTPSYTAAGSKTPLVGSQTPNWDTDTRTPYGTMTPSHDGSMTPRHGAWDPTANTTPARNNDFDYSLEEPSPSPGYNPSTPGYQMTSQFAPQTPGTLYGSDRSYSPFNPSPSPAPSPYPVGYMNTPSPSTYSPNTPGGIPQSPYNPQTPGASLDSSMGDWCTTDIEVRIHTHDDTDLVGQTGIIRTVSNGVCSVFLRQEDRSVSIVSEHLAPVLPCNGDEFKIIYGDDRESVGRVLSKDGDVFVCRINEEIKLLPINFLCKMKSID
UniProt Q8ST83: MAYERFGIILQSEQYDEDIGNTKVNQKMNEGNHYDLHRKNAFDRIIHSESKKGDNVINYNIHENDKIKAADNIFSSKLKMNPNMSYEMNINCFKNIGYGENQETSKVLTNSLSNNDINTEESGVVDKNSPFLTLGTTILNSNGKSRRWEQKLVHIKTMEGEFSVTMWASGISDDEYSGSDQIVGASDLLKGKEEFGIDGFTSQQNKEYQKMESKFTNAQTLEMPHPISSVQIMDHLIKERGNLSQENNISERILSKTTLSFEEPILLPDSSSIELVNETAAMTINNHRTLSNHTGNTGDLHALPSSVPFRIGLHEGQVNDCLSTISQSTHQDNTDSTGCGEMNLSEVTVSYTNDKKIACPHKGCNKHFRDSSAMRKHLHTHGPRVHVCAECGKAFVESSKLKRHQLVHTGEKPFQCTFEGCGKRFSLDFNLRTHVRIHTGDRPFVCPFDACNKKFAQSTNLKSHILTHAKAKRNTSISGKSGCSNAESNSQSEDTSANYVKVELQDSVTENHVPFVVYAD

This assay addresses FLAG-tagged Spt5 (Drosophila) (UniProt Q9V460). The assay can be described thus: co-IP; S2 DRSC cells transiently co-transfected with a FLAG-tagged and an HA-tagged construct; lysis in 50 mM Tris pH 7.5, 150 mM NaCl, 1% NP40, 1 mM EGTA, 20 mM NaF; anti-FLAG IP on Protein G Dynabeads at 4 °C, anti-HA Western blot; cells at 25 °C, heat shocked (37 °C, 15 min) and recovering, or treated with radicicol, flavopiridol + heat shock, sodium salicylate, HSF or LacZ RNAi.

These are yes or no findings as the source states them, for the method shown. In cells and extracts the contact can be indirect. Binding calls can cover weak binding; strength is not graded here.

Turning to “HA-tagged Pho ΔREPO (from UniProt Q8ST83)”, the binding entry is “binds weakly”.
